Experimental data as given in the supplement of paper PMC4604168 (melanoma cell lines).
Some of the results follow. Single values are uncertain, as repeats are few or missing.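 Imaging used 1,536-well plates; nuclei positive for cleaved PARP by antibody were divided by total DNA-stained nuclei to yield the apoptosis fraction. Doses for screening kept most cells viable, and cell lines differ markedly in resting and induced cleaved-PARP levels.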

Assays:
Test in all cases: cleaved PARP positive nuclei fraction relative to DMSO control; melanoma cells; higher = more apoptosis
Settings in all cases: library dose: low library concentration; 72 h
MZ2-MEL = tested on: MZ2-MEL
MeWo = tested on: MeWo
RPMI7951 = tested on: RPMI7951
RVH-421 = tested on: RVH-421
SkMel28 = tested on: SkMel28
SkMel2 = tested on: SkMel2
SkMel30 = tested on: SkMel30
SkMel5 = tested on: SkMel5
UACC257 = tested on: UACC257
UACC62 = tested on: UACC62
WM115 = tested on: WM115
WM1716 = tested on: WM1716
WM1745 = tested on: WM1745
WM3526 = tested on: WM3526
WM3619 = tested on: WM3619
WM451Lu = tested on: WM451Lu

SMILES | cleaved PARP positive nuclei fraction (MZ2-MEL) [%] | cleaved PARP positive nuclei fraction (MeWo) [%] | cleaved PARP positive nuclei fraction (RPMI7951) [%] | cleaved PARP positive nuclei fraction (RVH-421) [%] | cleaved PARP positive nuclei fraction (SkMel28) [%] | cleaved PARP positive nuclei fraction (SkMel2) [%] | cleaved PARP positive nuclei fraction (SkMel30) [%] | cleaved PARP positive nuclei fraction (SkMel5) [%] | cleaved PARP positive nuclei fraction (UACC257) [%] | cleaved PARP positive nuclei fraction (UACC62) [%] | cleaved PARP positive nuclei fraction (WM115) [%] | cleaved PARP positive nuclei fraction (WM1716) [%] | cleaved PARP positive nuclei fraction (WM1745) [%] | cleaved PARP positive nuclei fraction (WM3526) [%] | cleaved PARP positive nuclei fraction (WM3619) [%] | cleaved PARP positive nuclei fraction (WM451Lu) [%]
CC(C)(C)c1cnc(CSc2cnc(NC(=O)C3CCNCC3)s2)o1 + C[C@@H]1CCN(C(=O)CC#N)C[C@@H]1N(C)c1ncnc2[nH]ccc12 [CP690550] (first compound 0.01 µM, partner dose 1 µM) | 112 | 106 | 95.1 | 108 | 83.7 | 112 | 69.9 | 32.1 | 137 | 242 | 80.3 | 153 | 95.6 | 117 | 102 | 403
Cn1c(Nc2ccc(C(F)(F)F)cc2)nc2cc(Oc3ccnc(-c4ncc(C(F)(F)F)[nH]4)c3)ccc21 + Cc1ccc(NC(=O)c2cccc(N(C)C)c2)cc1NC(=O)c1ccc(O)cc1 [ZM336372] (first compound 0.08 µM, partner dose 2 µM) | 158 | 50 | 237 | 89.7 | 99.2 | 147 | 152 | 242 | 1790 | 296 | 1040 | 301 | 141 | 263 | 115 | 128
C[C@]1(c2nc3c(C(N)=O)cccc3[nH]2)CCCN1 [Veliparib] + CC1(C)NC(=O)N(c2ccc([N+](=O)[O-])c(C(F)(F)F)c2)C1=O [nilutamide] (first compound 1.4 µM, partner dose 1 µM) | 74.1 | 70.6 | 113 | 40.8 | 30.7 | 82.8 | 70 | 74.8 | 118 | 180 | 111 | 96.8 | 103 | 84.8 | 96.8 | 182
CO[C@@H]1[C@H](N(C)C(=O)c2ccccc2)C[C@H]2O[C@]1(C)n1c3ccccc3c3c4c(c5c6ccccc6n2c5c31)C(=O)NC4 [Midostaurin] + NCC(=O)Nc1ccc(-n2nc(C(F)(F)F)cc2-c2ccc3c(ccc4ccccc43)c2)cc1 [OSU03012] (first compound 0.08 µM, partner dose 1 µM) | 84.9 | 201 | 154 | 63.8 | 91.8 | 124 | 244 | 80.8 | 37.2 | 76.9 | 148 | 170 | 109 | 129 | 108 | 251
Cc1cc(N2CCOCC2)cc2[nH]c(-c3c(NC[C@@H](O)c4cccc(Cl)c4)cc[nH]c3=O)nc12 + COc1cc2c(Oc3ccc4[nH]c(C)cc4c3F)ncnc2cc1OCCCN1CCCC1 [cediranib] (first compound 0.2 µM, partner dose 0.4 µM) | 213 | 107 | 118 | 152 | 232 | 129 | 73.2 | 104 | 110 | 172 | 72.6 | 87.2 | 125 | 68.4 | 68.1 | 43.7
CC(=O)c1c(C)c2cnc(Nc3ccc(N4CCNCC4)cn3)nc2n(C2CCCC2)c1=O [palbociclib] + CCc1ccc(CCOc2ccc(CC3SC(=O)NC3=O)cc2)nc1 [pioglitazone] (first compound 0.04 µM, partner dose 2 µM) | 106 | 80.5 | 43.1 | 272 | 149 | 90.7 | 55.7 | 209 | 106 | 169 | 151 | 126 | 105 | 106 | 117 | 197
Cc1nc(Nc2ncc(C(=O)Nc3c(C)cccc3Cl)s2)cc(N2CCN(CCO)CC2)n1 [dasatanib] + C=CCn1c(=O)c2cnc(Nc3ccc(N4CCN(C)CC4)cc3)nc2n1-c1cccc(C(C)(C)O)n1 [MK1775] (first compound 0.004 µM, partner dose 0.02 µM) | 180 | 119 | 147 | 70.3 | 180 | 84.1 | 77.7 | 167 | 156 | 80 | 183 | 319 | 170 | 28 | 118 | 121
Cn1c(Nc2ccc(C(F)(F)F)cc2)nc2cc(Oc3ccnc(-c4ncc(C(F)(F)F)[nH]4)c3)ccc21 + OCCn1cc(-c2cnc3nnn(Cc4ccc5ncccc5c4)c3n2)cn1 [PF04217903] (first compound 0.08 µM, partner dose 1 µM) | 138 | 89 | 106 | 107 | 73.1 | 93.7 | 156 | 79.8 | 210 | 133 | 502 | 179 | 116 | 126 | 137 | 106
CC(=O)c1c(C)c2cnc(Nc3ccc(N4CCNCC4)cn3)nc2n(C2CCCC2)c1=O [palbociclib] + CC(C)(C)c1cnc(CSc2cnc(NC(=O)C3CCNCC3)s2)o1 [SNS-032] (first compound 0.04 µM, partner dose 0.01 µM) | 98.5 | 233 | 144 | 54.6 | 320 | 58 | 72.8 | 65.6 | 143 | 226 | 86.4 | 179 | 123 | 107 | 144 | 51.7
Nc1cccc2c1CN(C1CCC(=O)NC1=O)C2=O (centres undefined) [lenalidomide] + O=C(Nc1cccc(Cl)c1)Nc1ncc(CCNc2ncnc3ccsc23)s1 [SNS314] (first compound 1 µM, partner dose 0.0008 µM) | 35.3 | 120 | 89.7 | 142 | 134 | 151 | 139 | 134 | 110 | 162 | 157 | 115 | 102 | 69.5 | 99.9 | 116
NC(=O)Nc1cc(-c2cccc(F)c2)sc1C(=O)N[C@H]1CCCNC1 + O=C(O)c1ccc(-c2c[nH]c3ncc(-c4ccccc4)cc23)cc1C1CCCC1 [GSK650394] (first compound 0.02 µM, partner dose 0.16 µM) | 79.8 | 42.5 | 98.9 | 250 | 27.5 | 95.5 | 220 | 247 | 66.8 | 164 | 103 | 213 | 110 | 59.2 | 219 | 69.4
C=CCn1c(=O)c2cnc(Nc3ccc(N4CCN(C)CC4)cc3)nc2n1-c1cccc(C(C)(C)O)n1 + Cn1cncc1[C@@](N)(c1ccc(Cl)cc1)c1ccc2c(c1)c(-c1cccc(Cl)c1)cc(=O)n2C [tipifarnib] (first compound 0.02 µM, partner dose 0.01 µM) | 95.8 | 241 | 119 | 61.3 | 211 | 222 | 142 | 151 | 293 | 262 | 664 | 24.6 | 121 | 148 | 132 | 95.4
O=C(Nc1cccc(Cl)c1)Nc1ncc(CCNc2ncnc3ccsc23)s1 + NCC(=O)Nc1ccc(-n2nc(C(F)(F)F)cc2-c2ccc3c(ccc4ccccc43)c2)cc1 [OSU03012] (first compound 0.0008 µM, partner dose 1 µM) | 139 | 160 | 168 | 164 | 233 | 189 | 94.7 | 62.9 | 133 | 71.1 | 285 | 109 | 112 | 92.7 | 114 | 139
Cn1nnc2c(C(N)=O)ncn2c1=O [temozolomide] + COc1cc(Nc2ncc(F)c(Nc3ccc4c(n3)NC(=O)C(C)(C)O4)n2)cc(OC)c1OC [Tamatinib] (first compound 2 µM, partner dose 0.4 µM) | 109 | 267 | 142 | 254 | 471 | 147 | 79.5 | 163 | 80.5 | 189 | 126 | 180 | 124 | 39.2 | 228 | 101
OCc1c[nH]c2ccccc12 [Indole-3-carbinol] + COC(=O)c1sccc1S(=O)(=O)Nc1ccc(Nc2ccccc2)cc1OC [GSK0660] (first compound 0.8 µM, partner dose 1 µM) | 52.9 | 53.3 | 28.9 | 97.8 | 66.5 | 68.6 | 120 | 170 | 109 | 149 | 218 | 169 | 79.6 | 72.3 | 64.2 | 89.9
COCC[n+]1c2c(n(Cc3cnccn3)c1C)C(=O)c1ccccc1C2=O + O=C(Nc1cccc(Cl)c1)Nc1ncc(CCNc2ncnc3ccsc23)s1 [SNS314] (first compound 0.0004 µM, partner dose 0.0008 µM) | 192 | 57.6 | 311 | 71.1 | 121 | 111 | 88.8 | 223 | 160 | 69.4 | 58.9 | 43 | 82.6 | 56.8 | 93.8 | 179
Cn1nnc2c(C(N)=O)ncn2c1=O [temozolomide] + CC(C)(C)c1cnc(CSc2cnc(NC(=O)C3CCNCC3)s2)o1 [SNS-032] (first compound 2 µM, partner dose 0.01 µM) | 119 | 50.1 | 117 | 86.5 | 230 | 94.6 | 51.2 | 59.5 | 192 | 327 | 114 | 101 | 89.4 | 132 | 112 | 60.9
C#Cc1cccc(Nc2ncnc3cc(OCCOC)c(OCCOC)cc23)c1 [erlotinib] + NCC(=O)Nc1ccc(-n2nc(C(F)(F)F)cc2-c2ccc3c(ccc4ccccc43)c2)cc1 [OSU03012] (first compound 0.8 µM, partner dose 1 µM) | 129 | 167 | 192 | 62.6 | 64.2 | 115 | 99.9 | 72 | 45 | 54.5 | 78.3 | 238 | 120 | 95.9 | 79.5 | 282
Cc1cc(N2CCOCC2)cc2[nH]c(-c3c(NC[C@@H](O)c4cccc(Cl)c4)cc[nH]c3=O)nc12 + CN(C)S(=O)(=O)c1ccc2c(c1)/C(=C/c1cc3c([nH]1)CCCC3)C(=O)N2 [SU6656] (first compound 0.2 µM, partner dose 0.4 µM) | 199 | 97.4 | 90.6 | 51.5 | 138 | 130 | 79 | 70.2 | 119 | 83.4 | 377 | 117 | 144 | 86.1 | 119 | 171

Quoted at random: 2 records from the list, in no set order.
SMILES | cleaved PARP positive nuclei fraction (MZ2-MEL) [%] | cleaved PARP positive nuclei fraction (MeWo) [%] | cleaved PARP positive nuclei fraction (RPMI7951) [%] | cleaved PARP positive nuclei fraction (RVH-421) [%] | cleaved PARP positive nuclei fraction (SkMel28) [%] | cleaved PARP positive nuclei fraction (SkMel2) [%] | cleaved PARP positive nuclei fraction (SkMel30) [%] | cleaved PARP positive nuclei fraction (SkMel5) [%] | cleaved PARP positive nuclei fraction (UACC257) [%] | cleaved PARP positive nuclei fraction (UACC62) [%] | cleaved PARP positive nuclei fraction (WM115) [%] | cleaved PARP positive nuclei fraction (WM1716) [%] | cleaved PARP positive nuclei fraction (WM1745) [%] | cleaved PARP positive nuclei fraction (WM3526) [%] | cleaved PARP positive nuclei fraction (WM3619) [%] | cleaved PARP positive nuclei fraction (WM451Lu) [%]
NC(=O)Nc1cc(-c2cccc(F)c2)sc1C(=O)N[C@H]1CCCNC1 + O=C(O)c1ccc(-c2c[nH]c3ncc(-c4ccccc4)cc23)cc1C1CCCC1 [GSK650394] (first compound 0.02 µM, partner dose 0.16 µM) | 79.8 | 42.5 | 98.9 | 250 | 27.5 | 95.5 | 220 | 247 | 66.8 | 164 | 103 | 213 | 110 | 59.2 | 219 | 69.4
Cc1cc(N2CCOCC2)cc2[nH]c(-c3c(NC[C@@H](O)c4cccc(Cl)c4)cc[nH]c3=O)nc12 + COc1cc2c(Oc3ccc4[nH]c(C)cc4c3F)ncnc2cc1OCCCN1CCCC1 [cediranib] (first compound 0.2 µM, partner dose 0.4 µM) | 213 | 107 | 118 | 152 | 232 | 129 | 73.2 | 104 | 110 | 172 | 72.6 | 87.2 | 125 | 68.4 | 68.1 | 43.7
